Results taken from ChEMBL document CHEMBL1687827, “Profiling the Aspergillus fumigatus proteome in response to caspofungin” (2011).
The source gives many values for each of these; only a part stands here.

Legend:
Assay type in all cases: functional
Aspergillus fumigatus [1] = assay: Induction of change in allergen Asp F4 protein level in iTRAQ-116 labelled secreted fraction of drug-resistant Aspergillus fumigatus EMFR-S678P at 0.12 ug/ml after 48 hrs in YPD medium by MS (MS/MS) analysis relative to control
Aspergillus fumigatus [2] = assay: Induction of change in ribosomal protein L34 protein, putative protein level in iTRAQ-118 labelled cell wall fraction of drug-resistant Aspergillus fumigatus EMFR-S678P at 0.12 ug/ml after 24 hrs in YPD medium by MS (MS/MS) analysis relative to control
Aspergillus fumigatus [3] = assay: Induction of change in GPI-anchored cell wall organization protein Ecm33 protein level in iTRAQ-116 labelled cell wall fraction of drug-susceptible Aspergillus fumigatus KU80 delta-akuB at 0.12 ug/ml after 48 hrs in YPD medium by MS (MS/MS) analysis relative to control
Aspergillus fumigatus [4] = assay: Induction of change in ribosomal protein L37a gene expression in drug-susceptible Aspergillus fumigatus KU80 delta-akuB at 0.12 ug/ml after 24 hrs in YPD medium by microarray analysis relative to control
Aspergillus fumigatus [5] = assay: Induction of change in GPI-anchored cell wall organization protein Ecm33 protein level in iTRAQ-116 labelled cell wall fraction of drug-resistant Aspergillus fumigatus EMFR-S678P at 0.12 ug/ml after 48 hrs in YPD medium by MS (MS/MS) analysis relative to control
Aspergillus fumigatus [6] = assay: Induction of change in nuclear transport factor NTF-2, putative protein level in iTRAQ-116 labelled secreted fraction of drug-susceptible Aspergillus fumigatus KU80 delta-akuB at 0.12 ug/ml after 48 hrs in YPD medium by MS (MS/MS) analysis relative to control
Aspergillus fumigatus [7] = assay: Induction of change in ATP citrate lyase subunit (Acl), putative protein level in iTRAQ114 labelled secreted fraction of drug-resistant Aspergillus fumigatus EMFR-S678P at 0.12 ug/ml after 24 hrs in YPD medium by MS (MS/MS) analysis relative to control
Aspergillus fumigatus [8] = assay: Induction of change in GPI anchored protein, putative gene expression in drug-susceptible Aspergillus fumigatus KU80 delta-akuB at 0.12 ug/ml after 48 hrs in YPD medium by microarray analysis relative to control
Aspergillus fumigatus [9] = assay: Induction of change in 1,3-beta-glucanosyltransferase Gel1 protein level in iTRAQ-116 labelled secreted fraction of drug-susceptible Aspergillus fumigatus KU80 delta-akuB at 0.12 ug/ml after 48 hrs in YPD medium by MS (MS/MS) analysis relative to control
Aspergillus fumigatus [10] = assay: Induction of change in hypothetical protein level in iTRAQ121 labelled cell wall fraction of drug-susceptible Aspergillus fumigatus KU80 delta-akuB at 0.12 ug/ml after 48 hrs in YPD medium by MS (MS/MS) analysis relative to control
Aspergillus fumigatus [11] = assay: Induction of change in transaldolase protein level in iTRAQ114 labelled secreted fraction of drug-susceptible Aspergillus fumigatus KU80 delta-akuB at 0.12 ug/ml after 24 hrs in YPD medium by MS (MS/MS) analysis relative to control
Aspergillus fumigatus [12] = assay: Induction of change in translation elongation factor eEF-3, putative protein level in iTRAQ-118 labelled cell wall fraction of drug-resistant Aspergillus fumigatus EMFR-S678P at 0.12 ug/ml after 24 hrs in YPD medium by MS (MS/MS) analysis relative to control
Aspergillus fumigatus [13] = assay: Induction of change in large subunit ribosomal protein L3 protein level in iTRAQ114 labelled secreted fraction of drug-susceptible Aspergillus fumigatus KU80 delta-akuB at 0.12 ug/ml after 24 hrs in YPD medium by MS (MS/MS) analysis relative to control
Aspergillus fumigatus [14] = assay: Induction of change in IgE-binding protein level in iTRAQ-116 labelled cell wall fraction of drug-susceptible Aspergillus fumigatus KU80 delta-akuB at 0.12 ug/ml after 48 hrs in YPD medium by MS (MS/MS) analysis relative to control
Aspergillus fumigatus [15] = assay: Induction of change in antigenic mitochondrial protein HSP60, putative protein level in iTRAQ114 labelled secreted fraction of drug-susceptible Aspergillus fumigatus KU80 delta-akuB at 0.12 ug/ml after 24 hrs in YPD medium by MS (MS/MS) analysis relative to control
Aspergillus fumigatus [16] = assay: Induction of change in hypothetical gene locus AFUA_6G02020 expression in drug-susceptible Aspergillus fumigatus KU80 delta-akuB at 0.12 ug/ml after 48 hrs in YPD medium by microarray analysis relative to control
Aspergillus fumigatus [17] = assay: Induction of change in cell wall protein PhiA protein level in iTRAQ-116 labelled secreted fraction of drug-susceptible Aspergillus fumigatus KU80 delta-akuB at 0.12 ug/ml after 48 hrs in YPD medium by MS (MS/MS) analysis relative to control
Aspergillus fumigatus [18] = assay: Induction of change in extracellular cell wall glucanase Crf1/allergen Asp F9 protein level in iTRAQ-118 labelled cell wall fraction of drug-susceptible Aspergillus fumigatus KU80 delta-akuB at 0.12 ug/ml after 24 hrs in YPD medium by MS (MS/MS) analysis relative to control
Aspergillus fumigatus [19] = assay: Induction of change in secreted dipeptidyl peptidase DppV protein level in iTRAQ-118 labelled cell wall fraction of drug-resistant Aspergillus fumigatus EMFR-S678P at 0.12 ug/ml after 24 hrs in YPD medium by MS (MS/MS) analysis relative to control
Aspergillus fumigatus [20] = assay: Induction of change in 60s ribosomal protein l21 gene expression in drug-susceptible Aspergillus fumigatus KU80 delta-akuB at 0.12 ug/ml after 24 hrs in YPD medium by microarray analysis relative to control
Aspergillus fumigatus [21] = assay: Induction of change in nucleoside diphosphate kinase protein level in iTRAQ-116 labelled secreted fraction of drug-resistant Aspergillus fumigatus EMFR-S678P at 0.12 ug/ml after 48 hrs in YPD medium by MS (MS/MS) analysis relative to control
Aspergillus fumigatus [22] = assay: Induction of change in hypothetical protein locus AFUA_3G14940 level in iTRAQ-116 labelled secreted fraction of drug-resistant Aspergillus fumigatus EMFR-S678P at 0.12 ug/ml after 48 hrs in YPD medium by MS (MS/MS) analysis relative to control
Aspergillus fumigatus [23] = assay: Induction of change in cell wall glucanase, putative protein level in iTRAQ-116 labelled cell wall fraction of drug-susceptible Aspergillus fumigatus KU80 delta-akuB at 0.12 ug/ml after 48 hrs in YPD medium by MS (MS/MS) analysis relative to control
Aspergillus fumigatus [24] = assay: Induction of change in choline oxidase (CodA), putative protein level in iTRAQ-116 labelled secreted fraction of drug-resistant Aspergillus fumigatus EMFR-S678P at 0.12 ug/ml after 48 hrs in YPD medium by MS (MS/MS) analysis relative to control
Aspergillus fumigatus [25] = assay: Induction of change in C2H2 transcription factor (Seb1), putative, putative gene expression in drug-susceptible Aspergillus fumigatus KU80 delta-akuB at 0.12 ug/ml after 48 hrs in YPD medium by microarray analysis relative to control

Question: For `CC[C@H](C)C[C@H](C)CCCCCCCCC(=O)N[C@H]1C[C@@H](O)[C@@H](NCCN)NC(=O)[C@@H]2[C@@H](O)CCN2C(=O)[C@H]([C@H](O)CCN)NC(=O)[C@H]([C@H](O)[C@@H](O)c2ccc(O)cc2)NC(=O)[C@@H]2C[C@@H](O)CN2C(=O)[C@H]([C@@H](C)O)NC1=O` [CASPOFUNGIN], which “fold change (FC)” value (Aspergillus fumigatus [1]) is on record?
Answer: 1.15

Question: And the “fold change (FC)” value (Aspergillus fumigatus [2])?
Answer: 1.15

Question: What about the “fold change (FC)” value (Aspergillus fumigatus [3]) of the same molecule?
Answer: 2.3

Question: What about the “fold change (FC)” value (Aspergillus fumigatus [4]) of the same molecule?
Answer: 6.2

Question: And the “fold change (FC)” value (Aspergillus fumigatus [5])?
Answer: 1.07

Question: What about the “fold change (FC)” value (Aspergillus fumigatus [6]) of the same molecule?
Answer: -3.5

Question: What about the “fold change (FC)” value (Aspergillus fumigatus [7]) of the same molecule?
Answer: -1.15

Question: What about the “fold change (FC)” value (Aspergillus fumigatus [8]) of the same molecule?
Answer: -2.8

Question: What about the “fold change (FC)” value (Aspergillus fumigatus [9]) of the same molecule?
Answer: 2.8

Question: And the “fold change (FC)” value (Aspergillus fumigatus [10])?
Answer: >16

Question: And the “fold change (FC)” value (Aspergillus fumigatus [11])?
Answer: 2.1

Question: What about the “fold change (FC)” value (Aspergillus fumigatus [12]) of the same molecule?
Answer: 1.07

Question: What about the “fold change (FC)” value (Aspergillus fumigatus [13]) of the same molecule?
Answer: 1.2

Question: What about the “fold change (FC)” value (Aspergillus fumigatus [14]) of the same molecule?
Answer: 1.1

Question: What about the “fold change (FC)” value (Aspergillus fumigatus [15]) of the same molecule?
Answer: 2.6

Question: And the “fold change (FC)” value (Aspergillus fumigatus [16])?
Answer: -2

Question: And the “fold change (FC)” value (Aspergillus fumigatus [17])?
Answer: -2.6

Question: And the “fold change (FC)” value (Aspergillus fumigatus [18])?
Answer: -3

Question: And the “fold change (FC)” value (Aspergillus fumigatus [19])?
Answer: -1.74

Question: What about the “fold change (FC)” value (Aspergillus fumigatus [20]) of the same molecule?
Answer: 4.8

Question: And the “fold change (FC)” value (Aspergillus fumigatus [21])?
Answer: -1.15

Question: What about the “fold change (FC)” value (Aspergillus fumigatus [22]) of the same molecule?
Answer: -1.32

Question: What about the “fold change (FC)” value (Aspergillus fumigatus [23]) of the same molecule?
Answer: -1.3

Question: What about the “fold change (FC)” value (Aspergillus fumigatus [24]) of the same molecule?
Answer: 1.23

Question: And the “fold change (FC)” value (Aspergillus fumigatus [25])?
Answer: -2.7
